Here are results for 2 substances from patent US20250019435A1.

Amino acid sequences for entries named in this document (tags omitted). A change or cut given only in a name is not applied to a line headed by its entry. Residues count along the entry.
UniProt Q8N109: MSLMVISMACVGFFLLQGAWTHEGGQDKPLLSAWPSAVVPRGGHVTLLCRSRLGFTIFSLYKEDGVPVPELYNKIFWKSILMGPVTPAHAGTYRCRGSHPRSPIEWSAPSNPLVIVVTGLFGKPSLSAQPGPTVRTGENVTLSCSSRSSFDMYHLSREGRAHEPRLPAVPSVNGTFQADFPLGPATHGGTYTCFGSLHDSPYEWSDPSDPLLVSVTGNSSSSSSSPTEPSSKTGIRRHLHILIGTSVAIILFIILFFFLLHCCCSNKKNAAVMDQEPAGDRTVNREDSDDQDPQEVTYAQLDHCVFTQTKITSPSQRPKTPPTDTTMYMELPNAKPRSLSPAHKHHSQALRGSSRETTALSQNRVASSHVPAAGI
UniProt Q8N743, residues 26-410: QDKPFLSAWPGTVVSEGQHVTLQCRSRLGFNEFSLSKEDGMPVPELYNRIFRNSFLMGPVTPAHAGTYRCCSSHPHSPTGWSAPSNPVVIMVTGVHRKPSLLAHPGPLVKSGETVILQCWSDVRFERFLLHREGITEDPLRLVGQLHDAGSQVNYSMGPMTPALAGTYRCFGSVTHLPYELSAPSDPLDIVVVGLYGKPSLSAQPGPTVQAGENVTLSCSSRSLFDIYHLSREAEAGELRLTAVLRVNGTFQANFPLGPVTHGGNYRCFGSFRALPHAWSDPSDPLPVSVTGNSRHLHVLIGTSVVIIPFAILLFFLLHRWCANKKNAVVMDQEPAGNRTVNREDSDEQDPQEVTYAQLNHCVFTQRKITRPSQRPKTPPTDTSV

In assay [1] the target is T1, PVR expressed on transduced cells (PVR-YFP) (UniProt P15151).
T1 sequence (looked up): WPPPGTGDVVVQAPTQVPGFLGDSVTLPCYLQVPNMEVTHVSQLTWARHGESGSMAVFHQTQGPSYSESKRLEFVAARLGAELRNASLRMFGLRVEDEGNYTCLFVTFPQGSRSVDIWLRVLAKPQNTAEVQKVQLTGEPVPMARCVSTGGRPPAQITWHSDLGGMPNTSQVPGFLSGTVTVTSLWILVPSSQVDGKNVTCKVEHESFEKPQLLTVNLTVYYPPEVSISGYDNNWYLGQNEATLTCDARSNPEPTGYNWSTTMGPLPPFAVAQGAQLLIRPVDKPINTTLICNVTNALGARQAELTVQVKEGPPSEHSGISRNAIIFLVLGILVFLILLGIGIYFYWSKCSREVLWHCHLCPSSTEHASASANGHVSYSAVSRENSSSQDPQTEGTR
As to the kind of experiment: flow cytometry, KIR2DL5-Ig on PVR/3T3 cells preincubated with His-tagged receptors. Background: A flow cytometer gives signals particle by particle.

In assay [2] the target is T1, PVR expressed on transduced cells (PVR-YFP). As to the kind of experiment: flow cytometry, PVR-YFP/3T3 preincubated with the His-tagged proteins, then KIR2DL5-Ig 20 µg/mL.
Assay [3] has the same target. As to the kind of experiment: intercellular conjugate assay, flow cytometry.
Assay [4] has the same target. As to the kind of experiment: intercellular conjugate assay, PVR/3T3 with KIR3DL3/3T3 (negative control).
Assay [5] has the same target. Briefly: intercellular conjugate assay, PKH26-labelled KIR3DL3/3T3 with eFluor450-labelled PVR/3T3, flow cytometry.

No constants are given. Whether binding was seen depends on the method and setting. Some binding calls cover weakened binding; strength is not graded here. Sequences can lack the tags named with a protein.

For “KIR2DL5-Ig fusion protein (KIR2DL5 extracellular domain fused to human IgG1 Fc) (from UniProt Q8N109 22-240) (Fc fusion)”, the binding result in assay [1] and in assay [2] was “binds” each time.

For “KIR3DL3 expressed on 3T3 cells (from UniProt Q8N743 26-410) (receptor)”, the binding entry in assay [3], in assay [4] and in assay [5] was “no binding” throughout.
